The record followed here is publication PMC7862700.

By UniProt entry, the sequences of proteins in these tests, tags left out. Where a name states a change or a piece, a line headed by the entry shows the natural chain unless it says otherwise.
UniProt Q00613: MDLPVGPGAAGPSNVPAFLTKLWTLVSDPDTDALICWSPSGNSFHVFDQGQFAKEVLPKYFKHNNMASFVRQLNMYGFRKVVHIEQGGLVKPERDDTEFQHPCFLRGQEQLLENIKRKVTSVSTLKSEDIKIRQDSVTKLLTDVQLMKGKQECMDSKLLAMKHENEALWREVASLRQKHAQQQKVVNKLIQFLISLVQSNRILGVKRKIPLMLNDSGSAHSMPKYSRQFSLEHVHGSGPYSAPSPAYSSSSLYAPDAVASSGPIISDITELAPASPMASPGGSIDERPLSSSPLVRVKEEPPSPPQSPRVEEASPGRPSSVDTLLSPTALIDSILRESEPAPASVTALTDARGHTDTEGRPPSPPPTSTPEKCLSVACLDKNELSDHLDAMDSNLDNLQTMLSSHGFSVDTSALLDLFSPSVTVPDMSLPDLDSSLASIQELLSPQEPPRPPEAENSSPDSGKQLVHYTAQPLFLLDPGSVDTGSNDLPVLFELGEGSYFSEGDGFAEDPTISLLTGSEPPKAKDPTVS

This is a selection; strong and weak results do not stand in their true shares. At the low end of the ranking the order means little.

For the assay, the target named is HSF1 (UniProt Q00613). The assay is described as follows: DAPPL (digital affinity profiling via proximity ligation, sequencing). Particulars: 10 mM Tris-HCl pH 7.5, 50 mM NaCl, 1 mM DTT, 4% glycerol, room temperature, 30 min; GST-TFs on glutathione beads, 16-mer random dsDNA library, 0.1% …; high values mean tight binding; double strand, one strand shown; scale: fold enrichment (6-mer frequency, TF over GST control).
TCACTA had a binding signal of 1.16. The value for GTCTAT was 0.943; that for TGGGCA was 0.764. Sequence CGTTGT yielded a binding signal of 0.763. Sequence GACCGG gave a binding signal of 0.543. The sequence CATGCA had a binding signal of 0.832.

In the case of CTGTGT, the binding signal was 0.714. The sequence GTGTTA yielded a binding signal of 0.941. AGTGGT yielded a binding signal of 0.837. As to TAAAAA, the binding signal was found to be 1.56. On to CACCCT, for which the binding signal was found to be 0.957. ACTGGT came in with a binding signal of 0.952. Sequence ATAGAT came in with a binding signal of 1.42. The value for GTACCA was 0.896; that for GCACTA was 1.11. In the case of TCACAA, the binding signal was determined as 1.03. Consider ACGTAA, for which the binding signal was determined as 1.17. Under ACCACA stands 0.848; under CCGCGC, 0.913.

Regarding GCCCAA, the binding signal was 0.961.

Sequence CCCCTG came in with a binding signal of 0.954. The value for TATGAG was 0.923; that for CGTACC was 0.951.

Turning to CCCGGT, the binding signal was 0.745. The value for GATAGC was 0.889; that for TCTCGT was 2.01. Regarding GCGGAA, the binding signal worked out at 0.56. Consider GAAAGC, for which the binding signal was 0.928. Turning to TCGCGG, the binding signal is 0.985. Consider GAAAAT, for which the binding signal turned out to be 1.49. The value for TCGAAC was 2; that for TACAGC was 0.932. The value for CTAAAT was 1.59. The value for ACTACA was 0.981; that for CTGATG was 1.33; that for GACCCA was 0.723. For the sequence GTTATA, the binding signal stood at 0.984. On to TTAAGG, for which the binding signal came to 1.67. Consider CGTACG, for which the binding signal came out at 0.892. With AATTCT, the binding signal was found to be 2.25.
